{
  "source": "PubChem BioAssay AID1487",
  "about": "(National Center for Advancing Translational Sciences (NCATS), 2009)",
  "assay": "qHTS Assay for Modulators of Lamin A Splicing",
  "conditions": "HeLa LMNA splicing GFP/RFP minigene ratio, 48 h",
  "outline": "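S3 HeLa stable clones carrying a lamin A-EGFP splicing minigene plus DsRed2 were seeded at 600 cells/well in Opti-MEM with 2% FBS, pin-dosed and incubated 48 h at 37°C. Acumen cytometry (488 nm) gave the GFP/RFP total-intensity ratio.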",
  "key": {"[1]": {"conditions": "measured here: RFP viability control channel"}, "[2]": {"conditions": "measured here: GFP splicing reporter channel"}},
  "note": "Some of the results follow. These are further read-outs of the screen, such as a control signal, another cell line or another target. No call is given for them. The list favours compounds with an active or inconclusive main result. Words in brackets tell the shape of the fitted curve; partial curves, single points and poor fits give uncertain potencies.",
  "data": [
    {"smiles": "COc1ccc(Nc2sc(C(=O)Nc3cccc(Cl)c3)c(N)c2C(=O)Nc2ccccc2OC)cc1", "values": [
      {"measurement": "AC50", "setting": "[1]", "result": "15.8 µM [rising, single point]"}
    ]},
    {"smiles": "COc1ccc(NC(=O)CN2CCCC(C)C2)c([N+](=O)[O-])c1", "note": "(configuration not stated)", "values": [
      {"measurement": "AC50", "setting": "[2]", "result": "20 µM [rising, single point]"},
      {"measurement": "AC50", "setting": "[1]", "result": "35.5 µM [rising, single point]"}
    ]},
    {"smiles": "Clc1ccc(/C=N/N2CCN(Cc3ccccc3Cl)CC2)cc1", "values": [
      {"measurement": "AC50", "setting": "[1]", "result": "31.6 µM [rising, single point]"}
    ]},
    {"smiles": "COc1ccc(N(C(=O)c2ccc(C)cc2)S(=O)(=O)c2cccs2)cc1", "values": [
      {"measurement": "AC50", "setting": "[1]", "result": "35.5 µM [rising, single point]"}
    ]},
    {"smiles": "CCOc1ccc(Br)cc1/C(C)=N\\NC1=NCCN1", "values": [
      {"measurement": "AC50", "setting": "[2]", "result": "10 µM [rising, single point]"},
      {"measurement": "AC50", "setting": "[1]", "result": "11.2 µM [rising, partial curve]"}
    ]},
    {"smiles": "CCCNC(=O)Cn1cnc2sc(C(=O)N3CCCC(C(=O)OCC)C3)c(C)c2c1=O", "note": "(configuration not stated)", "values": [
      {"measurement": "AC50", "setting": "[2]", "result": "0.01 µM [rising, full curve, poor fit]"}
    ]},
    {"smiles": "CCOCCn1ccc2c(OCC(=O)Nc3cccc([N+](=O)[O-])c3)cccc2c1=O", "values": [
      {"measurement": "AC50", "setting": "[1]", "result": "14.1 µM [falling, single point]"}
    ]},
    {"smiles": "C=CC[n+]1c(-c2ccc(OCC)cc2)csc1NNC(=O)Nc1ccccc1", "values": [
      {"measurement": "AC50", "setting": "[1]", "result": "11.2 µM [rising, partial curve]"}
    ]},
    {"smiles": "O=C(CNC(=O)OCc1ccccc1)Oc1cc2oc(=O)cc(-c3ccccc3)c2cc1Cl", "values": [
      {"measurement": "AC50", "setting": "[1]", "result": "20 µM [rising, single point]"}
    ]},
    {"smiles": "COc1ccccc1C(c1nnnn1Cc1ccccc1)N1CCN(c2nc3ccccc3s2)CC1", "note": "(configuration not stated)", "values": [
      {"measurement": "AC50", "setting": "[2]", "result": "11.2 µM [rising, partial curve, poor fit]"},
      {"measurement": "AC50", "setting": "[1]", "result": "11.2 µM [rising, partial curve]"}
    ]},
    {"smiles": "CCCCOC(=O)Nc1cccc(C(C)=O)c1", "values": [
      {"measurement": "AC50", "setting": "[1]", "result": "3.98 µM [rising, single point]"}
    ]},
    {"smiles": "CCOC(=O)c1c(-c2ccc(OCC)cc2)csc1NC(=O)CCN1C(=O)c2ccccc2C1=O", "values": [
      {"measurement": "AC50", "setting": "[2]", "result": "5.62 µM [rising, single point]"},
      {"measurement": "AC50", "setting": "[1]", "result": "6.31 µM [rising, single point]"}
    ]},
    {"smiles": "COc1cc(/C=N/Nc2nc(C)cc(=O)[nH]2)ccc1OC(=O)c1cccnc1", "values": [
      {"measurement": "AC50", "setting": "[1]", "result": "15.8 µM [rising, single point]"}
    ]},
    {"smiles": "O=C1CSC(=Nc2ccccc2[N+](=O)[O-])N1", "values": [
      {"measurement": "AC50", "setting": "[1]", "result": "5.62 µM [falling, single point]"}
    ]},
    {"smiles": "Cc1cccc(C)c1NC(=O)C(c1ccc([N+](=O)[O-])cc1)N(C)C(=O)c1ccccn1", "note": "(configuration not stated)", "values": [
      {"measurement": "AC50", "setting": "[1]", "result": "2.82 µM [rising, full curve, poor fit]"}
    ]},
    {"smiles": "COc1ccc(-n2c(SCc3ccccc3)nc3c([nH]c4ccccc43)c2=O)cc1", "values": [
      {"measurement": "AC50", "setting": "[2]", "result": "11.2 µM [falling, partial curve]"},
      {"measurement": "AC50", "setting": "[1]", "result": "8.91 µM [falling, partial curve]"}
    ]},
    {"smiles": "Cc1ccccc1NC(=O)c1ccc(Nc2c([N+](=O)[O-])cc([N+](=O)[O-])c3ccccc23)cc1", "values": [
      {"measurement": "AC50", "setting": "[1]", "result": "7.08 µM [rising, partial curve]"}
    ]},
    {"smiles": "CCn1c2ccccc2c2cc(CN3CCN(S(C)(=O)=O)CC3)ccc21", "values": [
      {"measurement": "AC50", "setting": "[1]", "result": "31.6 µM [rising, single point]"}
    ]},
    {"smiles": "OC[C@@H]1CCCN1Cc1nc(-c2cccs2)no1", "values": [
      {"measurement": "AC50", "setting": "[2]", "result": "0.794 µM [falling, full curve, poor fit]"},
      {"measurement": "AC50", "setting": "[1]", "result": "2.24 µM [falling, partial curve]"}
    ]},
    {"smiles": "Clc1ccc(Cc2noc(CN3CCN(c4ccccc4)CC3)n2)c(Cl)c1", "values": [
      {"measurement": "AC50", "setting": "[2]", "result": "17.8 µM [rising, partial curve, poor fit]"}
    ]},
    {"smiles": "Cc1cc(C)cc(C(=O)N2CC(=O)Nc3ccc(Br)cc3C2c2ccccc2)c1", "note": "(configuration not stated)", "values": [
      {"measurement": "AC50", "setting": "[1]", "result": "28.2 µM [falling, partial curve]"}
    ]},
    {"smiles": "CCCc1[nH]nc2c1C(C1CC=CCC1)C(C#N)=C(N)O2", "note": "(configuration not stated)", "values": [
      {"measurement": "AC50", "setting": "[2]", "result": "10 µM [rising, partial curve, poor fit]"},
      {"measurement": "AC50", "setting": "[1]", "result": "11.2 µM [rising, partial curve]"}
    ]},
    {"smiles": "O=C(CC(Nc1ccc(F)cc1)c1ccccc1)c1ccccc1", "note": "(configuration not stated)", "values": [
      {"measurement": "AC50", "setting": "[2]", "result": "28.2 µM [falling, single point]"}
    ]},
    {"smiles": "CN1/C(=c2/s/c(=C3/C(=O)N(c4ccccc4)NC3=Nc3ccccc3)n(C)c2=O)C(C)(C)c2ccccc21", "values": [
      {"measurement": "AC50", "setting": "[1]", "result": "17.8 µM [rising, partial curve]"}
    ]},
    {"smiles": "COc1cc(NS(=O)(=O)c2ccc(C)cc2C)cc(OC)c1OC", "values": [
      {"measurement": "AC50", "setting": "[1]", "result": "6.31 µM [rising, full curve]"}
    ]},
    {"smiles": "CCCCN(CC)CCCNC(=O)c1ccc2c(c1)NC(=O)CN2C", "values": [
      {"measurement": "AC50", "setting": "[2]", "result": "0.0282 µM [falling, full curve, poor fit]"}
    ]},
    {"smiles": "CCOC(=O)c1noc2ncn(CC(=O)Nc3ccccc3OC)c(=O)c12", "values": [
      {"measurement": "AC50", "setting": "[2]", "result": "0.126 µM [falling, partial curve]"}
    ]},
    {"smiles": "COC(=O)c1cc2nc(-c3ccc(OC)c(OC)c3)cc(C(F)(F)F)n2n1", "values": [
      {"measurement": "AC50", "setting": "[2]", "result": "12.6 µM [rising, single point]"}
    ]},
    {"smiles": "CCCCOc1ccc(-c2nnn(CC(=O)Nc3ncc(CC(=O)OCC)s3)n2)cc1", "values": [
      {"measurement": "AC50", "setting": "[2]", "result": "35.5 µM [falling, single point]"}
    ]},
    {"smiles": "COc1ccc(C(=O)NC(=S)Nc2ccccc2N2CCOCC2)cc1[N+](=O)[O-]", "values": [
      {"measurement": "AC50", "setting": "[2]", "result": "1.26 µM [rising, partial curve]"},
      {"measurement": "AC50", "setting": "[1]", "result": "1.78 µM [rising, partial curve]"}
    ]},
    {"smiles": "CC(C)CCn1c(SCc2cccc(F)c2)nc2ccsc2c1=O", "values": [
      {"measurement": "AC50", "setting": "[2]", "result": "35.5 µM [rising, single point]"}
    ]},
    {"smiles": "Cn1cc(-c2cc3n(n2)CCC(=O)N3CCCC(=O)NCc2ccccc2Cl)c2ccccc21", "values": [
      {"measurement": "AC50", "setting": "[2]", "result": "0.00316 µM [falling, full curve, poor fit]"}
    ]},
    {"smiles": "CC1CCc2nc(NC(=O)CN3CCN(c4ccc(F)cc4)CC3)sc2C1", "note": "(configuration not stated)", "values": [
      {"measurement": "AC50", "setting": "[2]", "result": "20 µM [rising, partial curve]"},
      {"measurement": "AC50", "setting": "[1]", "result": "12.6 µM [rising, single point]"}
    ]},
    {"smiles": "COc1ccccc1OC[C@H](O)COC(N)=O", "values": [
      {"measurement": "AC50", "setting": "[2]", "result": "1 µM [falling, full curve, poor fit]"},
      {"measurement": "AC50", "setting": "[1]", "result": "1 µM [falling, full curve, poor fit]"}
    ]},
    {"smiles": "CNc1sc(C(=O)c2ccccc2F)c(N)c1-c1nc2ccccc2s1", "values": [
      {"measurement": "AC50", "setting": "[2]", "result": "12.6 µM [rising, partial curve]"},
      {"measurement": "AC50", "setting": "[1]", "result": "22.4 µM [rising, single point]"}
    ]},
    {"smiles": "O=C(CSCc1c(Cl)cccc1Cl)Nc1ccc2c(c1)OCCO2", "values": [
      {"measurement": "AC50", "setting": "[1]", "result": "20 µM [rising, single point]"}
    ]}
  ]
}
